Experimental data: US20080131908A1 (Genentech, published 2008)
No constants are given. Whether binding was seen depends on the method and setting. Some binding calls cover weakened binding; strength is not graded here.

The chains behind the UniProt entries cited, without tags or fusion partners. Where a name states a change or a piece, a line headed by the entry shows the natural chain unless it says otherwise.
UniProt Q9UM47: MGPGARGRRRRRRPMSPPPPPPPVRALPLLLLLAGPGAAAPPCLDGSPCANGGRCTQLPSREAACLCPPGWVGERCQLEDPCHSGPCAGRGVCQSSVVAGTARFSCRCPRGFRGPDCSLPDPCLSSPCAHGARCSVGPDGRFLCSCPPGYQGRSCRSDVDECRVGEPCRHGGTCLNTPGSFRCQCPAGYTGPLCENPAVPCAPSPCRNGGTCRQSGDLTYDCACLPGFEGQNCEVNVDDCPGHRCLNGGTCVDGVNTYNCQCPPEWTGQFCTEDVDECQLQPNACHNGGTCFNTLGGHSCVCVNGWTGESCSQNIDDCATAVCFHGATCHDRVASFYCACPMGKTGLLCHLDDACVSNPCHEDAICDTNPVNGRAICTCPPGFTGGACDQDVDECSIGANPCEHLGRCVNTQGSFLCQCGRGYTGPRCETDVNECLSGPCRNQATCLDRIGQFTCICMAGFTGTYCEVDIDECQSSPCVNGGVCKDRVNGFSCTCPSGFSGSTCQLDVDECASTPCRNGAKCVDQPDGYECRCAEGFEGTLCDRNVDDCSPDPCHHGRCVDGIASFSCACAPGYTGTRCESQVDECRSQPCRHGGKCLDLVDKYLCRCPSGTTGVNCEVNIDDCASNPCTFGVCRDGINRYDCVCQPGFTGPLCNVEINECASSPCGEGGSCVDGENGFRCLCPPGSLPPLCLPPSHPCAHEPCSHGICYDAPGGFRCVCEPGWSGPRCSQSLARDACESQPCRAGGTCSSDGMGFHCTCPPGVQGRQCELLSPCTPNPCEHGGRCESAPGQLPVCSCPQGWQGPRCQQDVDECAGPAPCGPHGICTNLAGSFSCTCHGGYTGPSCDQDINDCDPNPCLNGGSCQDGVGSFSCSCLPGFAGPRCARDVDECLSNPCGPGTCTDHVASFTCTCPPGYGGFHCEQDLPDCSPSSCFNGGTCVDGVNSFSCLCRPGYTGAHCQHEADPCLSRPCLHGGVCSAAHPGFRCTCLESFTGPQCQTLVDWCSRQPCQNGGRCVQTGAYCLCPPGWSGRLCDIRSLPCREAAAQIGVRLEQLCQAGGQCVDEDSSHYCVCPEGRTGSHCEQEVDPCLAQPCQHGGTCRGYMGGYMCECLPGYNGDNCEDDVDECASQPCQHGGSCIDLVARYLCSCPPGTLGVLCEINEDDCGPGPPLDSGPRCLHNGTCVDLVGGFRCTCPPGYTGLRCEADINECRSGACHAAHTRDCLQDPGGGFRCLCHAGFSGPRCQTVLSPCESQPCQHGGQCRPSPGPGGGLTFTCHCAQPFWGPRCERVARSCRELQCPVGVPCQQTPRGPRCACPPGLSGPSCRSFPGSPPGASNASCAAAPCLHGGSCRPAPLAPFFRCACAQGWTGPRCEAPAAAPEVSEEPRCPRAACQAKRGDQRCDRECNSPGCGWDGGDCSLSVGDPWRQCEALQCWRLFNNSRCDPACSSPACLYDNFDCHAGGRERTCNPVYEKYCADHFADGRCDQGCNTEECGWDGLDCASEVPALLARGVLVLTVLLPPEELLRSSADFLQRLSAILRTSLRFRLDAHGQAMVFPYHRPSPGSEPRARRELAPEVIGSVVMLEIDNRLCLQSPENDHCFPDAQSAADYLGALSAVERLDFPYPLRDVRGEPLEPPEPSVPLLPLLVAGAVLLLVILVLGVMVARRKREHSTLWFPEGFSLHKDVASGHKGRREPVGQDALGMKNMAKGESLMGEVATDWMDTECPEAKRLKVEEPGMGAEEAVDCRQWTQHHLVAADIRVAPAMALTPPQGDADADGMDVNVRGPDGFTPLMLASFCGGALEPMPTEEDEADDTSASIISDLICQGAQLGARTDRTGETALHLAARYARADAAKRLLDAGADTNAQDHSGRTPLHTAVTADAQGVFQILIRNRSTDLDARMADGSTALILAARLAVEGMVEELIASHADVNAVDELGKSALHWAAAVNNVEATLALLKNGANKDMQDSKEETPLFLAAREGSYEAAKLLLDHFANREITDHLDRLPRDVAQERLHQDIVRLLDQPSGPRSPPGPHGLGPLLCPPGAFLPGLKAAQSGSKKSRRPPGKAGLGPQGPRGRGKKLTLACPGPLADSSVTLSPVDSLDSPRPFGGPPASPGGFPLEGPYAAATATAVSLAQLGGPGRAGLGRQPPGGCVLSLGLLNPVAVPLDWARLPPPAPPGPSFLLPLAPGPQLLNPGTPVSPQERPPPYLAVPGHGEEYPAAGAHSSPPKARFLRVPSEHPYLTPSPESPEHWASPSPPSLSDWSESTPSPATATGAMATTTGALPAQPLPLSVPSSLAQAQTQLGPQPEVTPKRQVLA

Tests used:
[1] = target: human Notch3 (full-length) (human) (UniProt Q9UM47); assay: summary of FMAT and Western blot on domain constructs
[2] = target: human Notch3 (full-length) (human) (UniProt Q9UM47); assay: cell-based FMAT assay and FACS analysis
[3] = target: Notch3-EGF/Fc fusion protein (human) (UniProt Q9UM47); assay: ELISA, hybridoma supernatant on coated fusion protein
[4] = target: human Notch3 (full-length) (human) (UniProt Q9UM47); assay: Western blot, denaturing conditions
[5] = target: Notch3-EGF/Fc fusion protein (human) (UniProt Q9UM47); assay: Western blot band intensity, denaturing conditions
[6] = target: human Notch3 (full-length) (human) (UniProt Q9UM47); assay: cell-based FMAT assay on cells expressing full-length Notch3
[7] = target: human Notch3 (full-length) (human) (UniProt Q9UM47); assay: Western blot band intensity, denaturing conditions, full-length Notch3 from transfected cells

Measured: binding

B1: anti-Notch 3 monoclonal antibody mAb 255A-71 (antibody, V domains shown)
VH: DVQLQESGPGLVKPSQSLSLTCSVTGYSITSGYYWNWIRQFPGNKLEWMGFISYDGSNNYNPSLKNRISITRDTSKNQFFLKLNSVTTEDTATFYCATLYYDYDGNYFDYWGQGTTLTVSS
VL: CDIQMTQTTSSLSASLGDRVTISCRTSQDISNYLNWYQQKPDGTVKLLIYYTSRLHSGVPSRFSGSGSGTDYSLTISNLEQEDIATYFCQQGNALPLTFGPGTKLELKR
notes: Mouse hybridoma mAb raised against Notch3-EGF/Fc
binds: [1] | [2] | [3] | [4] | [5] | [6] | [7]

B2: anti-Notch 3 monoclonal antibody mAb 255A-77 (antibody, V domains shown)
VH: QVQLQQSGDDLVKPGASVKLSCKASGYTFTSYWINWIKQRPGQGLEWIGHIGPGSGSTYYNEIFKGKATLTVDTSSSTAYIQLSSLSSEDSAVYFCVLTRYFYAMDYWGQGTSVTVSS
VL: DIVMTQSPSSLAVTAGEKVTMRCKSSQSLLWSVNQNNYLSWYQQKQGQPPKLLIYGASIRESWVPDRFTGSGSGTDFTLTISNVHVEDLAVYYCQHNHGSFLPLTFGAGTKLELKR
notes: as for B1
binds: [1] | [2] | [3] | [6]
